Results are given in words; binding and its absence hold for the method and conditions named. Binding seen in cells or lysates may run through a third protein. Some binding calls cover weakened binding; strength is not graded here. Sequences can lack the tags named with a protein.
B1: BAK1 (receptor, UniProt Q94F62 26-615)
chain: NAEGDALSALKNSLADPNKVLQSWDATLVTPCTWFHVTCNSDNSVTRVDLGNANLSGQLVMQLGQLPNLQYLELYSNNITGTIPEQLGNLTELVSLDLYLNNLSGPIPSTLGRLKKLRFLRLNNNSLSGEIPRSLTAVLTLQVLDLSNNPLTGDIPVNGSFSLFTPISFANTKLTPLPASPPPPISPTPPSPAGSNRITGAIAGGVAAGAALLFAVPAIALAWWRRKKPQDHFFDVPAEEDPEVHLGQLKRFSLRELQVASDNFSNKNILGRGGFGKVYKGRLADGTLVAVKRLKEERTQGGELQFQTEVEMISMAVHRNLLRLRGFCMTPTERLLVYPYMANGSVASCLRERPESQPPLDWPKRQRIALGSARGLAYLHDHCDPKIIHRDVKAANILLDEEFEAVVGDFGLAKLMDYKDTHVTTAVRGTIGHIAPEYLSTGKSSEKTDVFGYGVMLLELITGQRAFDLARLANDDDVMLLDWVKGLLKEKKLEALVDVDLQGNYKDEEVEQLIQVALLCTQSSPMERPKMSEVVRMLEGDGLAERWEEWQKEEMFRQDFNYPTHHPAVSGWIIGDSTSQIENEYPSGPR

Sequences of proteins named here, by UniProt entry; tags and fusion partners are left off. Residues count along the entry.
UniProt Q9RBS2: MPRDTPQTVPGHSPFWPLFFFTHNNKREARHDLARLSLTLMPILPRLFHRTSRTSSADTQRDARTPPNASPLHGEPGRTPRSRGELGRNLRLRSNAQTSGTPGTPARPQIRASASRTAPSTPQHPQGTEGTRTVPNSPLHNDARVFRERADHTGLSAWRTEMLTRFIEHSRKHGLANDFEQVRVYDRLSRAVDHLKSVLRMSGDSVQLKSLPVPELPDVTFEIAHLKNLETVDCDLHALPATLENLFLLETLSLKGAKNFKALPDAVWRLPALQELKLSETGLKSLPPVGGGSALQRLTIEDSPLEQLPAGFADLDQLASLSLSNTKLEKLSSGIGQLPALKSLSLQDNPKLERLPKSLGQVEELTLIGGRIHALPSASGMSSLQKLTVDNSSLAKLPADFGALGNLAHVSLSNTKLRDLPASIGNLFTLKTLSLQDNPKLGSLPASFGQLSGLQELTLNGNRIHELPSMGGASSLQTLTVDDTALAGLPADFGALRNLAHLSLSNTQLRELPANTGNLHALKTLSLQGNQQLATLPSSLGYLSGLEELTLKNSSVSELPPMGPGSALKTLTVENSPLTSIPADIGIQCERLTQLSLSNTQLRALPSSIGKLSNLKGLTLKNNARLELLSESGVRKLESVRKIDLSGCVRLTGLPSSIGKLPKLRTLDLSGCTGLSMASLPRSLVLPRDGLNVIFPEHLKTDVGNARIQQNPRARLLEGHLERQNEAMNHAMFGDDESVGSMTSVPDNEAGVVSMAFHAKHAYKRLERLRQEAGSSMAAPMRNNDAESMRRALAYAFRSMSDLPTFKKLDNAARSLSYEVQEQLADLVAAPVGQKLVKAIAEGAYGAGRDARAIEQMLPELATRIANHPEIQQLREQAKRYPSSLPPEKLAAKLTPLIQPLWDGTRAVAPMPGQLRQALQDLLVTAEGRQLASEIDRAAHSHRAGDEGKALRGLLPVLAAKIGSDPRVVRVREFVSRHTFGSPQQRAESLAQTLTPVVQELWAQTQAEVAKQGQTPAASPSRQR
UniProt Q9FL28, residues 24-1173: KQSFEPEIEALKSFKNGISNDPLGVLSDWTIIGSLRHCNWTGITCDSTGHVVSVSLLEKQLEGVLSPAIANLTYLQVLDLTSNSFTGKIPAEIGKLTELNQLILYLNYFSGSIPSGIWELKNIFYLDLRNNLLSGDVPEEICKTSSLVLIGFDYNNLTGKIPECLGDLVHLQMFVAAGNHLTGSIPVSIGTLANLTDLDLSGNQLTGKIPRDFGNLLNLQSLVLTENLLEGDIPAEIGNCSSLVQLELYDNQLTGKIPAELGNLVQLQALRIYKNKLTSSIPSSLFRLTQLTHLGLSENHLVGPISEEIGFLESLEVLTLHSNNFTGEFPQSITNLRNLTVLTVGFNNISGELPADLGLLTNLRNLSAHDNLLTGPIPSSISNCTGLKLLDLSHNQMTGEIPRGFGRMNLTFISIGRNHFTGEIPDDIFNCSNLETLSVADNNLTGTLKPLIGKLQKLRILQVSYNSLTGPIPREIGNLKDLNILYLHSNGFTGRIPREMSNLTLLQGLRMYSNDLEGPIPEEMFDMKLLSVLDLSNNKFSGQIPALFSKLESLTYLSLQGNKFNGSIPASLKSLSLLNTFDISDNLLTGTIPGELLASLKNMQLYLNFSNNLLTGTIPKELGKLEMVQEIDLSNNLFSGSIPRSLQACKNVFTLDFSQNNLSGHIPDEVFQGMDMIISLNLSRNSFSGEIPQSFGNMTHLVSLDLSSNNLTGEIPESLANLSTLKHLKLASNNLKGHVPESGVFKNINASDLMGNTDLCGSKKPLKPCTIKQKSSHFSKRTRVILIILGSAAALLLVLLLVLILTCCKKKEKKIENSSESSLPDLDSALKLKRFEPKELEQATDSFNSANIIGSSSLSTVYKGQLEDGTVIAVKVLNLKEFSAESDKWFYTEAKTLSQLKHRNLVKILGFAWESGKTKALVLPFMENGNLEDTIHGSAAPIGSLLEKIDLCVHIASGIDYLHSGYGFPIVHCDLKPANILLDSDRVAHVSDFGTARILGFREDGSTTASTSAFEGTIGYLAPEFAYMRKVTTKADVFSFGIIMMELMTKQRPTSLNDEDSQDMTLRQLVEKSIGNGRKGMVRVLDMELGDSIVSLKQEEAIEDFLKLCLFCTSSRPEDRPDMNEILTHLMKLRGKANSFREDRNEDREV

Columns and labels:
[1] = biological target: T1, AtPUB4-GFP (Arabidopsis) (UniProt O22193); assay: FRET or BRET
T1 sequence: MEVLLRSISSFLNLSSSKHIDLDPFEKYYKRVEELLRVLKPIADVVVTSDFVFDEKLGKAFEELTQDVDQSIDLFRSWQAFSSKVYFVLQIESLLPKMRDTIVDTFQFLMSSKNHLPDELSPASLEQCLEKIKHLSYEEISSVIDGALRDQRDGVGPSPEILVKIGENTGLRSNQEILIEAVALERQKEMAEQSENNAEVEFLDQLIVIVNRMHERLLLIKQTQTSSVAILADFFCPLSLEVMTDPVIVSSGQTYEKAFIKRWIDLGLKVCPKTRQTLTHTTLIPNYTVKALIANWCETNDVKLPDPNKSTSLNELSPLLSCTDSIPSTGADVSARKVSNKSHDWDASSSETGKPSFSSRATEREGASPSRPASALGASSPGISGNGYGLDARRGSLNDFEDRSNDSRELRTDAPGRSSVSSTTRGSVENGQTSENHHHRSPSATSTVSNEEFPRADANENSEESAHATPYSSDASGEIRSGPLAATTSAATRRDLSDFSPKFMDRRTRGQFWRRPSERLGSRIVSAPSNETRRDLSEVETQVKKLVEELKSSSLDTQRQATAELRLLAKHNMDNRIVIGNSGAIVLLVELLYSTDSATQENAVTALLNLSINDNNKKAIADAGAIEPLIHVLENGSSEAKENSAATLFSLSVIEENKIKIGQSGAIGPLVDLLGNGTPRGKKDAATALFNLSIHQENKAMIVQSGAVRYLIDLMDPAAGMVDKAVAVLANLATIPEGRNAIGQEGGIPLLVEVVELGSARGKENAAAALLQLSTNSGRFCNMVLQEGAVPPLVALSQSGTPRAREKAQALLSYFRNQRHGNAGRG

[2] = biological target: T2, PUB4-FLAG (Arabidopsis) (UniProt O22193); assay: co-IP
T2 sequence: T1 sequence

Molecule | binding [1] | binding [2]
RipAC-RFP (from UniProt Q9RBS2 1-1024) | binds | –
FLS2 (from UniProt Q9FL28 24-1173) (receptor) | – | binds
B1 | – | binds
